The test has as its target T1, HA-tagged wild-type human ZP1 (human), P60852.
T1 chain: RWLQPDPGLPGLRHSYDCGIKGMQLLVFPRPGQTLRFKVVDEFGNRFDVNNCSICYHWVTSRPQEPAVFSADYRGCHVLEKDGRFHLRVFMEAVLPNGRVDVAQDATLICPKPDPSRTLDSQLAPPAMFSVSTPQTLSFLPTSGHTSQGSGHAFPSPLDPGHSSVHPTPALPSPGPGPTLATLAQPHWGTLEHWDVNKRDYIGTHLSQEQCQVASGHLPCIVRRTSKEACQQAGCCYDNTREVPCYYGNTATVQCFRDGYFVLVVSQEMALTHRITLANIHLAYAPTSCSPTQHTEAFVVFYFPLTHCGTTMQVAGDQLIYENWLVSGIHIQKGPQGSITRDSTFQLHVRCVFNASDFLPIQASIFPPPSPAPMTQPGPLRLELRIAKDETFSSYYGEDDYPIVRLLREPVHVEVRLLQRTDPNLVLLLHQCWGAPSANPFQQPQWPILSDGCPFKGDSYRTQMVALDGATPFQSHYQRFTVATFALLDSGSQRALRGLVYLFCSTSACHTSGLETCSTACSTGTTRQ
In words: co-IP; HeLa cells co-transfected with HA-ZP1 (WT, or WT with R109H), FLAG-ZP2 or MYC-ZP3; lysate, anti-HA antibody on Protein A/G magnetic beads overnight at 4°C, six washes with lysis buffer, Western blot. Particulars: remark: other sources report otherwise.

No constants are given. Whether binding was seen depends on the method and setting. In cells and extracts the contact can be indirect. Some entries that bind do so weakly or less than the wild type. Tags and fused reporters may be left off the sequences shown.

B1: MYC-tagged human wild-type ZP3, P21754-1 23-350 (protein)
chain: QPLWLLQGGASHPETSVQPVLVECQEATLMVMVSKDLFGTGKLIRAADLTLGPEACEPLVSMDTEDVVRFEVGLHECGNSMQVTDDALVYSTFLLHDPRPVGNLSIVRTNRAEIPIECRYPRQGNVSSQAILPTWLPFRTTVFSEEKLTFSLRLMEENWNAEKRSPTFHLGDAAHLQAEIHTGSHVPLRLFVDHCVATPTPDQNASPYHTIVDFHGCLVDGLTDASSAFKVPRPGPDTLQFTVDVFHFANDSRNMIYITCHLKVTLAEQDPDELNKACSFSKPSNSWFPVEGSADICQCCNKGDCGTPSHSRRQPHVMSQWSRSASRN
Regarding B1, the binding result was “binds”.

The values above are taken from article PMC7412702.
